From paper PMC6465247
These are yes or no findings as the source states them, for the method shown. In cells and extracts the contact can be indirect. Some binding calls cover weakened binding; strength is not graded here. Sequences can lack the tags named with a protein.

What was measured:
[1] = molecular target: T1, PDS5C, BiFC fusion (Arabidopsis thaliana) (UniProt Q8GUP3); test: split reporter; BiFC and ratiometric BiFC (pBiFC-2in1-NN, YFP against RFP as reference) in tobacco leaves after Agrobacterium infiltration; imaged 2 days after infiltration
T1 sequence: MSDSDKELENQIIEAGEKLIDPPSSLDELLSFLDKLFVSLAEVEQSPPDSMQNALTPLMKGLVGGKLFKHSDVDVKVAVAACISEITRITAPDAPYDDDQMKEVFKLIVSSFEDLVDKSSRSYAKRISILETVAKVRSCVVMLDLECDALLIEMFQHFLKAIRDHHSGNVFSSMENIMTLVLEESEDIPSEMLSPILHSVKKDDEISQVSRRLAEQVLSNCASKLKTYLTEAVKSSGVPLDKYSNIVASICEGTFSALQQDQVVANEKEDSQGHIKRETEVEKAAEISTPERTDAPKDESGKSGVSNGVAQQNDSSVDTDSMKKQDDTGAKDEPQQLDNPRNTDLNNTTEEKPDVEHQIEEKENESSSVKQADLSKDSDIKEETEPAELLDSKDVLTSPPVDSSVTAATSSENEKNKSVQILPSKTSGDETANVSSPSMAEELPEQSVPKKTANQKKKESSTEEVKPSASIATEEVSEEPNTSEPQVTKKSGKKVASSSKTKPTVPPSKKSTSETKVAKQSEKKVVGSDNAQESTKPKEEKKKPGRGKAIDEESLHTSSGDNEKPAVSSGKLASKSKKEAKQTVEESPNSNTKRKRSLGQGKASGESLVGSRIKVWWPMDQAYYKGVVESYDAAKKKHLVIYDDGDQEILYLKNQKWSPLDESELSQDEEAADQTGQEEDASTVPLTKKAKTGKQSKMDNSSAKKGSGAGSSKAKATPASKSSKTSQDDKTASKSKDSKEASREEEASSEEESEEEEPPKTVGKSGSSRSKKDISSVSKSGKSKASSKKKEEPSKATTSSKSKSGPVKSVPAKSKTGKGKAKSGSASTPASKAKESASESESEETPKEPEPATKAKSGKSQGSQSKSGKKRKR

[2] = molecular target: T2, PDS5B, BiFC fusion (Arabidopsis thaliana) (UniProt F4I735); test: as above
T2 sequence: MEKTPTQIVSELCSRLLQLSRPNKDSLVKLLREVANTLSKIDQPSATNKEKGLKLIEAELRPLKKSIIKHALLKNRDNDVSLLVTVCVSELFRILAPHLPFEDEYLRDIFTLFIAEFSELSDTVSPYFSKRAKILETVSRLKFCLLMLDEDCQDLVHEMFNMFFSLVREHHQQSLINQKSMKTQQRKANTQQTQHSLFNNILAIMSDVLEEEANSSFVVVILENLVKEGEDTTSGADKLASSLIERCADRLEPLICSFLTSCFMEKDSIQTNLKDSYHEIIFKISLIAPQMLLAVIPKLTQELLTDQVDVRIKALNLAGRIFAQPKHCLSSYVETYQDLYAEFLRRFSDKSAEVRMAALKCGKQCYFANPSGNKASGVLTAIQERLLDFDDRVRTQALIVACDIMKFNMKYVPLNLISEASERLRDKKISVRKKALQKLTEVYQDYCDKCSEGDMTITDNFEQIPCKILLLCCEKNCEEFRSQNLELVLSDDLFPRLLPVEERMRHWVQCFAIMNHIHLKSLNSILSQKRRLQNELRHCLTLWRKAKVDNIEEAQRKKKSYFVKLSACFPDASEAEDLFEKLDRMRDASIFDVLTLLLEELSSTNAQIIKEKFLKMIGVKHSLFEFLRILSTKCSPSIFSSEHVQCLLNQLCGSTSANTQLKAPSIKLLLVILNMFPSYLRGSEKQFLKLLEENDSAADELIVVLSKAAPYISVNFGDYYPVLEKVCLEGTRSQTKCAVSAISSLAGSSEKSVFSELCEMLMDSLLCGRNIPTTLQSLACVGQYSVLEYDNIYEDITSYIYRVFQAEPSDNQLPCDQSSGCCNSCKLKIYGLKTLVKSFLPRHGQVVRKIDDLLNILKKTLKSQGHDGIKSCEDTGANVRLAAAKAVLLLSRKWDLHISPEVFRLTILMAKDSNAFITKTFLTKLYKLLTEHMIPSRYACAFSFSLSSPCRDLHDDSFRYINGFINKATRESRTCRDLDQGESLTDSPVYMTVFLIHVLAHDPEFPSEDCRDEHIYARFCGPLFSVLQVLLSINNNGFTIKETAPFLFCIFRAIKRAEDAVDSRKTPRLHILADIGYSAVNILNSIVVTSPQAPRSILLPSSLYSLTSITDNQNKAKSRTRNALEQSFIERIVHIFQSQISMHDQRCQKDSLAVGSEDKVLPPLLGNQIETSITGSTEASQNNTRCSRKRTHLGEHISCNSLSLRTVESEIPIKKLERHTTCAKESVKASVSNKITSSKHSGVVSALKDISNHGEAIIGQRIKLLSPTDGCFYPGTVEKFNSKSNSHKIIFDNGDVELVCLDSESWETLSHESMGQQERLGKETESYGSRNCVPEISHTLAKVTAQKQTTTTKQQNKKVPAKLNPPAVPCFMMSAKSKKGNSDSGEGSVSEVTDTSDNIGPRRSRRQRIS

binding [1]: binds
binding [2]: binds weakly
B1: SWI1, BiFC fusion (protein, UniProt Q9FGN8 1-639)
chain: MSSTMFVKRNPIRETTAGKISSPSSPTLNVAVAHIRAGSYYEIDASILPQRSPENLKSIRVVMVSKITASDVSLRYPSMFSLRSHFDYSRMNRNKPMKKRSGGGLLPVFDESHVMASELAGDLLYRRIAPHELSMNRNSWGFWVSSSSRRNKFPRREVVSQPAYNTRLCRAASPEGKCSSELKSGGMIKWGRRLRVQYQSRHIDTRKNKEGEESSRVKDEVYKEEEMEKEEDDDDGNEIGGTKQEAKEITNGNRKRKLIESSTERLAQKAKVYDQKKETQIVVYKRKSERKFIDRWSVERYKLAERNMLKVMKEKNAVFGNSILRPELRSEARKLIGDTGLLDHLLKHMAGKVAPGGQDRFMRKHNADGAMEYWLESSDLIHIRKEAGVKDPYWTPPPGWKLGDNPSQDPVCAGEIRDIREELASLKRELKKLASKKEEEELVIMTTPNSCVTSQNDNLMTPAKEIYADLLKKKYKIEDQLVIIGETLRKMEEDMGWLKKTVDENYPKKPDSTETPLLLEDSPPIQTLEGEVKVVNKGNQITESPQNREKGRKHDQQERSPLSLISNTGFRICRPVGMFAWPQLPALAAATDTNASSPSHRQAYPSPFPVKPLAAKRPLGLTFPFTIIPEEAPKNLFNV
